Experimental data as given in PubChem BioAssay AID1487 (National Center for Advancing Translational Sciences (NCATS), 2009).
The other results are listed elsewhere or left out. Shown are side measurements of this screen, not its main read-out; they come without a call. Most of these compounds were active or inconclusive in the main read-out, so they are no random draw. Potencies come from curve fits of mixed quality, noted in brackets.

Experiment: qHTS Assay for Modulators of Lamin A Splicing
Settings: HeLa LMNA splicing GFP/RFP minigene ratio, 48 h
Source text: NCGC Assay Overview: Hutchinson-Gilford Progeria Syndrome (HGPS) is a pediatric premature aging disease caused by a spontaneous mutation in the lamin A/C (LMNA) gene. The mutation activates a cryptic splice site in the LMNA pre-mRNA which results in production of a pre-lamin A protein that cannot be processed properly. The mutant protein accumulates in the nucleus and negatively affects numerous cellular functions. Correction of the splicing defect in HGPS patient cells using a targeted oligonucleotide (exo11) leads to reversal of the cellular disease phenotypes. To identify small molecule modulators of aberrant LMNA splicing, a homogenous assay was constructed in HeLa cells that used a GFP containing minigene to report on correction of aberrant splicing in lamin A and a RFP (DsRed2) to report on cell viability, uniformity and nonspecific effects on the assay signal. This assay was adapted to laser-scanning microplate cytometry (Acumen, TTP Labtech) where miniaturization of the assay to a 1,536-well plate format was possible. References: Bowen, W. P.; Wylie, P. G. Application of Laser-Scanning Fluorescence Microplate Cytometry in High Content Screening. Assay Drug Dev Technol 2006;4:209-221. Scaffidi P, Misteli T. Reversal of the cellular phenotype in the premature aging disease Hutchinson-Gilford progeria syndrome. Nat.
NCGC Assay Protocol Summary: Reagents/Controls: Stable clones expressing DsRed2 and lamin A-EGFP were generated by Cell and Molecular Technologies in S3 HeLa cells. HeLa cells were prepared for the assay when they were 70-90% confluent. The cells were counted and resuspended in Opti-MEM I (no phenol red; Gibco), 2% FBS, 1% penicillin/ streptomycin (Gibco) at concentration of 120 cells/uL concentration. The suspension was passed through a Falcon basket filter with pore size 40um (Beckton Dickson). Control titrations: column […] 1536-well plate contained a sixteen point titration (1:2 dilutions) in duplicate of ancitabine (Sigma: A8598) beginning at 40 uM final concentration. Column 2 contained a sixteen point titration (1:2 dilutions) of cycloheximide beginning at 1.4 mM final concentration. Column 3 contained ancitabine at 40 uM and column 4 contained was the vehicle control (0.5% DMSO final concentration). Assay Steps: 5 uL of HeLa cells were plated in Aurora LoBase black clear bottom (cyclic-olefin polymer) 1536-well plates at a final density of 600 cells/well. Controls and library compounds were added with a 1536-well pin array using the Kalypsys pin-tool. The plates were then incubated for 48 hrs in a cell-culture incubator (37 °C; 5% CO2, 98% humidity). Following incubation the plates were read on the Acumen Explorer using the 488 nm laser. Data was collected on objects between 10 and 100 um in size. Cell objects were defined by a 15 um width x 10 um depth filter. The ratio of the total object intensity in PMT1 (500-530 nm emission; GFP) over PMT3 (575-640 nm emission; RFP) was calculated for analysis. Keywords: NIH Roadmap, MLSCN, MLI, MLSMR, qHTS, NCGC, lamin A, Progeria, RNA splicing.

[1] = measured here: RFP viability control channel
[2] = measured here: GFP splicing reporter channel

Row | Structure (SMILES) | AC50 [1] | AC50 [2]
1 | CCOc1ccc(C2=NNC(c3cccs3)=Nc3ccc(OC)cc32)cc1 | 15.8 µM [rising, partial curve, poor fit] | –
2 | CCCCOc1ccc(S(=O)(=O)NNC(=O)c2cc3ccccc3o2)cc1 | 10 µM [rising, single point] | –
3 | CCN(CC)S(=O)(=O)c1ccc2c(c1)C(=NO)c1cc(S(=O)(=O)N(CC)CC)ccc1-2 | – | 1.41 µM [rising, partial curve]
4 | Cc1cc(C)cc(-n2c(N)c(C(=O)Nc3c(C)n(C)n(-c4ccccc4)c3=O)c3nc4ccccc4nc32)c1 | 35.5 µM [rising, single point] | –
5 | Cc1ccc2nc(-c3ccc(NS(=O)(=O)c4ccc(F)c(F)c4)cc3)sc2c1 | 35.5 µM [rising, single point] | –
6 | O=C(NCCC1=CCCCC1)c1ccc2c(=O)n3nc(Nc4ccccc4)sc3nc2c1 | 17.8 µM [falling, partial curve, poor fit] | 15.8 µM [falling, single point]
7 | CCCn1c(=O)c(C(=O)NCc2ccccn2)c(O)c2ccccc21 | 17.8 µM [rising, single point] | –
8 | Cc1ccc(C(=O)Nc2nc(COc3ccccc3)cs2)s1 | 8.91 µM [rising, partial curve] | 6.31 µM [rising, full curve]
9 | CCOc1cc(CNc2ccc(N3CCN(C(C)=O)CC3)cc2)cc(Br)c1OC | 25.1 µM [rising, single point] | –
10 | Cc1cccc(-n2ncc3c(NCCCO)ncnc32)c1 | 0.0316 µM [rising, full curve, poor fit] | –
11 | CCOC(=O)c1c(-c2ccccc2)csc1NC(=O)c1nn(CC)cc1Br | 35.5 µM [rising, single point] | 10 µM [rising, partial curve, poor fit]
12 | Cc1[nH]c2ccc(-c3n[nH]c(=S)n3-c3ccccc3)cc2c1C | – | 35.5 µM [rising, single point]
13 | CCOC(=O)/C(=C\C=C1/Sc2cc(OCC)c(OCC)cc2N1CC)C(C)=O | 7.08 µM [falling, partial curve] | 8.91 µM [falling, partial curve]
14 | COc1ccc(S(=O)(=O)N2CCN(c3ccccc3OC)CC2)cc1OC | 31.6 µM [rising, single point] | –
15 | COc1ccccc1NC(=S)N(Cc1ccco1)Cc1cc2cc(C)cc(C)c2[nH]c1=O | 10 µM [rising, partial curve] | –
16 | Fc1ccc(NC(=S)NC2CCCCC2)c(F)c1F | 14.1 µM [rising, single point] | –

Records 6–7, reprinted for reference:
Row | Structure (SMILES) | AC50 [1] | AC50 [2]
6 | O=C(NCCC1=CCCCC1)c1ccc2c(=O)n3nc(Nc4ccccc4)sc3nc2c1 | 17.8 µM [falling, partial curve, poor fit] | 15.8 µM [falling, single point]
7 | CCCn1c(=O)c(C(=O)NCc2ccccn2)c(O)c2ccccc21 | 17.8 µM [rising, single point] | –
